No constants are given. Whether binding was seen depends on the method and setting. Some binding calls cover weakened binding; strength is not graded here.
T1: prothymosin α (ProTα) (UniProt P06454)
T1 sequence: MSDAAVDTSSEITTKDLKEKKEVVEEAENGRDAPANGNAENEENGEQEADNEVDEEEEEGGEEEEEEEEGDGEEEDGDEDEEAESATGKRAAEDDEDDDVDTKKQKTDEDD


Target: T1, prothymosin α (ProTα)
Assay: associative phase separation (complex coacervation; brightfield microscopy and coexistence measurements of dense and dilute phases); ProTα mixed with a polycation at charge balance in TEK buffer; images at 90 mM KCl (ionic strength 98 mM); phase diagrams as a function of salt concentration; both purified

| binding | Binder |
| --- | --- |
| binds | KKKKKKKKKKKKKKKKKKKKKKKKKKKKKKKKKKKKKKKKKKKKKKKKKK [poly-L-lysine-50 (K50)] |
| binds | RRRRRRRRRRRRRRRRRRRRRRRRRRRRRRRRRRRRRRRRRRRRRRRRRR [poly-L-arginine-50 (R50)] |
